Test results published in US9266830B2, “Pesticidal arylpyrrolidines” (Bayer Intellectual Property GmbH, priority 2007, dated 2016).
Some entries share one result that the patent states for a list of compounds.

How the values were obtained:
Format in all cases: in vivo
[1] = tested on: Ctenocephalides felis; experiment: Ctenocephalides felis test (CTECFE), blood feeding; details: application rate 100 ppm in cattle blood, adult fleas, after 2 days
Experimental: (§1) Solvent: dimethyl sulfoxide
To produce a suitable preparation of active compound, 10 mg of active compound are dissolved in 0.5 ml solvent, and the concentrate is diluted with cattle blood to the desired concentration. Approximately 10 to 15 adult unfed (Ctenocepahlides felis) are placed in flea chambers. The blood chamber, are sealed with parafilm on the bottom are filled with cattle blood supplied with compound solution and placed on top of the flea chamber, so that the fleas are able to suck the blood. The blood chamber is heated to 37° C. whereas the flea chamber is kept at room temperature. After 2 days mortality in % is determined 100% means that all the fleas have been killed; 0% means that none of the fleas have been killed.

[2] = tested on: Boophilus microplus; experiment: Boophilus microplus (dip); details: application rate 100 ppm, adult engorged females, after 7 days
Experimental: as §1
To produce a suitable preparation of active compound, 10 mg of active compound are dissolved in 0.5 ml solvent, and the concentrate is diluted with water to the desired concentration. Eight to ten adult engorged female Boophilus microplus ticks are placed in perforated plastic beakers and immersed in aqueous compound solution for one minute. Ticks are transferred to a filter paper in a plastic tray. Egg deposition of fertile eggs is monitored after. After 7 days mortality in % is determined 100% means that all the ticks have been killed; 0% means that none of the ticks have been killed.

[3] = tested on: Lucilia cuprina larvae; experiment: Lucilia cuprina test (larvae in minced horse meat); details: application rate 100 ppm, after 2 days
Experimental: as §1
To produce a suitable preparation of active compound, 10 mg of active compound are dissolved in 0.5 ml solvent, and the concentrate is diluted with water to the desired concentration. Approximately 20-30 (Lucilia cuprina larvae) are transferred into a test tube containing 1 cm^3 of minced horse meat and 0.5 ml aqueous dilution of test compound. After 2 days mortality in % is determined 100% means that all the larvae have been killed; 0% means that none of the larvae have been killed.

[4] = tested on: Musca domestica; experiment: Musca domestica test (sugar sponge); details: application rate 100 ppm, adults, after 2 days
Experimental: as §1
To produce a suitable preparation of active compound, 10 mg of active compound are dissolved in 0.5 ml solvent, and the concentrate is diluted with water to the desired concentration. Prior to the assay, a piece or kitchen sponge is soaked with a mixture of sugar and compound solution and placed into a container. 10 adults (Musca domestica) are placed into the container and closed with a perforated lid. After 2 days mortality in % is determined. 100% means that all the flies have been killed; 0% means that none of the flies have been killed.

Structure (SMILES) | activity (mortality in %) [1] [%] | activity (mortality in %) [2] [%] | activity (mortality in %) [3] [%] | activity (mortality in %) [4] [%]
CN(Cc1ccc(N2CCC(c3cc(Cl)cc(Cl)c3)(C(F)(F)F)C2)cc1Cl)C(=O)C1CC1 (stereo not shown) [1-74] | 80 | 100 |  | 
CN(Cc1ccc(N2CCC(c3cc(Cl)cc(Cl)c3)(C(F)(F)F)C2)cc1Cl)C(=O)CC(F)(F)F (stereo not shown) [1-75] |  | 100 | 100 | 
O=C(NCc1ccc(N2CCC(c3cc(Cl)cc(Cl)c3)(C(F)(F)F)C2)cc1Cl)NCC(F)(F)F (stereo not shown) [1-78] | 95 |  | 100 | 80
CN(C)C(=O)NCc1ccc(N2CCC(c3cc(Cl)cc(Cl)c3)(C(F)(F)F)C2)cc1Cl (stereo not shown) [1-118] | 80 | 100 | 100 | 100
CC(C)C(=O)NCc1ccc(N2CCC(c3cc(Cl)cc(Cl)c3)(C(F)(F)F)C2)cc1C(F)(F)F (stereo not shown) [1-145] | 80 | 100 | 100 | 
C=CC(=O)NCc1ccc(N2CCC(c3cc(Cl)cc(Cl)c3)(C(F)(F)F)C2)cc1C(F)(F)F (stereo not shown) [1-173] | 95 | 100 | 100 | 
C=CCC(=O)NCc1ccc(N2CCC(c3cc(Cl)cc(Cl)c3)(C(F)(F)F)C2)cc1C(F)(F)F (stereo not shown) [1-180] | 95 | 100 | 100 | 
N#CCC(=O)NCc1ccc(N2CCC(c3cc(Cl)cc(Cl)c3)(C(F)(F)F)C2)cc1C(F)(F)F (stereo not shown) [1-183] | 100 |  | 100 | 100
CCNC(=O)NCc1ccc(N2CCC(c3cc(Cl)cc(Cl)c3)(C(F)(F)F)C2)cc1C(F)(F)F (stereo not shown) [1-220] | 100 | 100 | 100 | 
CNC(=O)NCc1ccc(N2CCC(c3cc(C(F)(F)F)cc(C(F)(F)F)c3)(C(F)(F)F)C2)cc1C(F)(F)F (stereo not shown) [1-301] | 100 |  | 100 | 100
CCNC(=O)NCc1ccc(N2CCC(c3cc(C(F)(F)F)cc(C(F)(F)F)c3)(C(F)(F)F)C2)cc1C(F)(F)F (stereo not shown) [1-302] | 100 |  | 100 | 100
CC(C)NC(=O)NCc1ccc(N2CCC(c3cc(C(F)(F)F)cc(C(F)(F)F)c3)(C(F)(F)F)C2)cc1C(F)(F)F (stereo not shown) [1-304] | 100 |  | 100 | 80
O=C(NCc1ccc(N2CCC(c3cc(C(F)(F)F)cc(C(F)(F)F)c3)(C(F)(F)F)C2)cc1Cl)C1CC1 (stereo not shown) [1-308] | 100 |  | 100 | 100
O=C(NCc1ccc(N2CCC(c3cc(C(F)(F)F)cc(C(F)(F)F)c3)(C(F)(F)F)C2)cc1Br)C1CC1 (stereo not shown) [1-313] | 100 |  | 100 | 100
CCNC(=O)NCc1cnc(N2CCC(c3cc(Cl)c(Cl)c(Cl)c3)(C(F)(F)F)C2)cc1C(F)(F)F (stereo not shown) [1-381] | 100 |  | 100 | 100
O=C(CC(F)(F)F)NCc1cnc(N2CCC(c3cc(C(F)(F)F)cc(C(F)(F)F)c3)(C(F)(F)F)C2)cc1C(F)(F)F (stereo not shown) [1-386] | 100 |  | 100 | 100
CCSCC(=O)NCc1ccc(N2CCC(c3cc(Cl)cc(Cl)c3)(C(F)(F)F)C2)cc1Cl (stereo not shown) [1-461] |  | 100 |  | 
CSCCC(=O)NCc1ccc(N2CCC(c3cc(Cl)cc(Cl)c3)(C(F)(F)F)C2)cc1Cl (stereo not shown) [1-467] | 100 |  | 100 | 100
C[S+]([O-])CC(=O)NCc1ccc(N2CCC(c3cc(Cl)cc(Cl)c3)(C(F)(F)F)C2)cc1C(F)(F)F (stereo not shown) [1-494] | 100 |  | 100 | 100

Structure (SMILES) | activity (mortality in %) [1] [%] | activity (mortality in %) [2] [%] | activity (mortality in %) [3] [%] | activity (mortality in %) [4] [%]
CS(=O)(=O)CC(=O)NCc1ccc(N2CCC(c3cc(Cl)cc(Cl)c3)(C(F)(F)F)C2)cc1C(F)(F)F (stereo not shown) [1-495] | 100 |  | 100 | 100
CC[S+]([O-])CC(=O)NCc1ccc(N2CCC(c3cc(Cl)cc(Cl)c3)(C(F)(F)F)C2)cc1C(F)(F)F (stereo not shown) [1-500] | 100 | 100 | 100 | 100
C=CC[S+]([O-])CC(=O)NCc1ccc(N2CCC(c3cc(Cl)cc(Cl)c3)(C(F)(F)F)C2)cc1C(F)(F)F (stereo not shown) [1-504] | 95 |  | 100 | 80
CSCCC(=O)NCc1ccc(N2CCC(c3cc(Cl)cc(Cl)c3)(C(F)(F)F)C2)cc1C(F)(F)F (stereo not shown) [1-509] | 90 |  | 100 | 100
CSCC(=O)NCc1ccc(N2CCC(c3cc(Cl)c(Cl)c(Cl)c3)(C(F)(F)F)C2)cc1C(F)(F)F (stereo not shown) [1-728] | 100 | 100 | 100 | 100
CS(=O)(=O)CC(=O)NCc1ccc(N2CCC(c3cc(Cl)c(Cl)c(Cl)c3)(C(F)(F)F)C2)cc1C(F)(F)F (stereo not shown) [1-730] | 100 | 100 | 100 | 100
CC(=O)CC(=O)NCc1ccc(N2CCC(c3cc(C(F)(F)F)cc(C(F)(F)F)c3)(C(F)(F)F)C2)cc1C(F)(F)F (stereo not shown) [1-963] | 100 | 100 | 100 | 100
CSCC(=O)NCc1ccc(N2CCC(c3cc(C(F)(F)F)cc(C(F)(F)F)c3)(C(F)(F)F)C2)cc1C(F)(F)F (stereo not shown) [1-966] | 100 |  | 100 | 100
C[S+]([O-])CC(=O)NCc1ccc(N2CCC(c3cc(C(F)(F)F)cc(C(F)(F)F)c3)(C(F)(F)F)C2)cc1C(F)(F)F (stereo not shown) [1-967] | 100 |  | 100 | 100
CS(=O)(=O)CC(=O)NCc1ccc(N2CCC(c3cc(C(F)(F)F)cc(C(F)(F)F)c3)(C(F)(F)F)C2)cc1C(F)(F)F (stereo not shown) [1-968] | 100 |  | 100 | 100
C=CC[S+]([O-])CC(=O)NCc1ccc(N2CCC(c3cc(C(F)(F)F)cc(C(F)(F)F)c3)(C(F)(F)F)C2)cc1C(F)(F)F (stereo not shown) [1-970] | 100 |  | 100 | 80
O=C(NCC(F)(F)F)c1cnc(N2CCC(c3cc(C(F)(F)F)cc(C(F)(F)F)c3)(C(F)(F)F)C2)nc1C(F)(F)F (stereo not shown) [2-34] | 100 |  | 100 | 100
Cc1nc(N2CCC(c3cc(Cl)cc(Cl)c3)(C(F)(F)F)C2)ncc1C(=O)NCC(F)(F)F (stereo not shown) [2-69] |  |  |  | 80
CC(=O)NCc1cnc(N2CCC(c3cc(Cl)c(Cl)c(Cl)c3)(C(F)(F)F)C2)nc1C(F)(F)F (stereo not shown) [3-141] | 100 |  | 100 | 100
CCC(=O)NCc1cnc(N2CCC(c3cc(C(F)(F)F)cc(C(F)(F)F)c3)(C(F)(F)F)C2)nc1C(F)(F)F (stereo not shown) [3-148] | 80 |  | 100 | 100
O=C(CC(F)(F)F)NCc1cnc(N2CCC(c3cc(C(F)(F)F)cc(C(F)(F)F)c3)(C(F)(F)F)C2)nc1C(F)(F)F (stereo not shown) [3-150] |  |  | 100 | 100
CCNC(=O)NCc1cnc(N2CCC(c3cc(C(F)(F)F)cc(C(F)(F)F)c3)(C(F)(F)F)C2)nc1C(F)(F)F (stereo not shown) [3-151] | 95 |  | 100 | 80
O=C(NCC(F)(F)F)c1sc(N2CCC(c3cc(Cl)cc(Cl)c3)(C(F)(F)F)C2)nc1C(F)(F)F (stereo not shown) [4-8] | 95 |  | 100 | 100
CCC(=O)NC1CCc2cc(N3CCC(c4cc(Cl)cc(Cl)c4)(C(F)(F)F)C3)ccc21 (stereo not shown) [6-4] | 100 |  | 100 | 80
